Assay: Full RFB with BTMAP-Fc posolyte, galvanostatic cycling, polarization, post-mortem CV
Conditions: for capacity maintained (of first/initial capacity): after 100 cycles

Structure (SMILES)	CE (4.5 mA/cm^2)	energy efficiency (EE) (4.5 mA/cm^2)	capacity decrease (27 mA cm^−2 compared to 4.5 mA cm^−2)	maximum power density (MPD) (90% SOC)	average CE (500 cycles)	capacity-fading rate per cycle (500 cycles, full cell)	capacity maintained (of first/initial capacity) (18 mA cm^−2)	loss of the negolyte molecule by crossover (after 500 cycles)	loss of total capacity (after 500 cycles)	capacity maintained (of first charging capacity) (after 500 cycles, 18 mA cm^−2)	first charging capacity (full RFB 0.1 M negolyte, 4.5 mA/cm^2)	first charging capacity (full RFB, 18 mA cm^−2)	c1 current density on the negolyte side relative to the posolyte side (post-mortem CV after 500 cycles)	capacity maintained (after 220 cycles)	capacity maintained (after 335 cycles)	anodic CV wave intensity in the posolyte solution relative to the negolyte solution (BTP^+ full RFB, post-mortem CV after 335 cycles)
C[N+](C)(C)CCC[n+]1ccc(-c2nc3ccccc3s2)cc1 [TMAP-BTP^2+]	> 98.96%	~86%	14%	17.8 mW/cm^2	exceeding 99.80%	0.08%	89.8%	about 26.7%	~34.3%	65.7%	2.50 Ah/L	2.57 Ah L^−1	~2.75 times	–	–	–
C[n+]1ccc(-c2nc3ccccc3s2)cc1 [BTP^+]	–	–	–	–	–	–	~60%	–	–	–	–	–	–	~50%	~50%	–
C[N+](C)(C)CCC[c-]1cccc1.C[N+](C)(C)CCC[c-]1cccc1.O=S(=O)([N-]S(=O)(=O)C(F)(F)F)C(F)(F)F.O=S(=O)([N-]S(=O)(=O)C(F)(F)F)C(F)(F)F.[Fe+2] [BTMAP-Fc·2TFSI^−, 1,1′-bis[3-(trimethylammonio)propyl]ferrocene dibis-trifluoromethanesulfonimidate, reference compound]	–	–	–	–	–	–	–	–	–	–	–	–	–	–	–	2.3 times
